These results are taken from PubChem BioAssay AID2685 (National Center for Advancing Translational Sciences (NCATS), 2010).

The assay in a line: qHTS Assay for Lipid Storage Modulators in Drosophila S3 Cells.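 For cell number change: cells counted by Cell Tracker Red CMTPX staining in the red channel.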 As to conditions: BODIPY lipid droplet fluorescence, 18-24 h; for cell number change: measured here: cell count max response, cells fed with added oleic acid. The gist of the method:
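Drosophila S3 cells got compounds at several concentrations plus oleic acid (400 uM solution). Laser-scanning cytometry with 488 nm excitation read lipid droplets at 500-530 nm and cells at 575-640 nm. Percent activity was relative to 20 uM Triacsin C.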

Setting [1] is: measured here: cell number channel AC50, cells fed with added oleic acid.
Where [2] appears, read: measured here: lipid fluorescence (Fed channel) AC50, cells fed with added oleic acid.

This is one part of the list. The main result of the screen is listed elsewhere. These columns were measured beside it and carry no call. Compounds called inactive in the main read-out are mostly missing here. Words in brackets tell the shape of the fitted curve; partial curves, single points and poor fits give uncertain potencies.

As for `COC(=O)c1nc(-c2ccccc2)n[nH]1`, the cell number change was -0.17%. Further, the half-maximal activity concentration (AC50) under setting [1] is 0.0517 µM [falling, full curve, poor fit]. Besides, under setting [2], the AC50 was 25.9 µM [falling, partial curve]. For the molecule `Cc1oc(-c2ccccc2F)nc1CS(=O)CC(=O)NC1CC1` (stereo not drawn), the AC50 under setting [2] was 0.58 µM [rising, single point]. On to `Cc1cc(NC(=O)CSCC(=O)Nc2nc3ccc(F)cc3s2)no1`, for which the half-maximal activity concentration (AC50) under setting [2] is 9.2 µM [falling, partial curve]. For `COC(=O)c1cc(-c2cccc([N+](=O)[O-])c2)c2c(=O)n(C)c(=O)n(C)c2n1`, the cell number change worked out at 34%. In addition, the AC50 under setting [1] is 18.4 µM [rising, single point]. In addition, the AC50 under setting [2] is 20.6 µM [rising, single point]. `COc1cc(-c2n[nH]c(=O)o2)cc(OC)c1OC`: the cell number change came out at 23.3%. Besides, the half-maximal activity concentration (AC50) under setting [2] was 9.2 µM [rising, partial curve]. On to `COc1cccc(-c2nc(-c3cccs3)no2)c1`, for which the concentration at half-maximal activity (AC50) under setting [2] is 29.1 µM [rising, single point]. In the case of `O=C(N/N=C/c1ccc(O)c(O)c1)c1cccc(S(=O)(=O)N2CCCCC2)c1`, the cell number change is -3.55%. For the molecule `O=C(CCc1ccccc1)NC1CCSC1=O` (stereo not drawn), the cell number change turned out to be 18.7%. The AC50 under setting [2] is 0.00461 µM [falling, full curve, poor fit]. As for `COc1cc(/C=C2\SC(=O)N(Cc3ccc(F)cc3)C2=O)cc([N+](=O)[O-])c1O`, the cell number change was found to be 11.7%. Consider `O=C(CNC(=O)c1ccc(Cl)cc1)NC1CCCCC1`, for which the cell number change amounted to 18.8%. In addition, under setting [2], the AC50 is 29.1 µM [rising, single point]. As for `N#Cc1ccc(OCC(=O)N/N=C2\CCc3ccccc32)cc1`, the cell number change was 101%. For the same molecule, the AC50 under setting [1] is 5.17 µM [rising, partial curve]. Moreover, the AC50 under setting [2] was 3.26 µM [rising, partial curve]. For `Oc1ccc(O)c(Cc2nc3ccccc3s2)c1`, the cell number change is 63.8%. The AC50 under setting [1] is 29.1 µM [rising, single point]. In the case of `Cc1ccccc1N1CC(C(=O)Nc2nnc(SCc3cccnc3)s2)CC1=O` (stereo not drawn), the cell number change was determined as 14.1%. Moreover, the half-maximal activity concentration (AC50) under setting [2] was 5.62 µM [rising, single point]. `COc1ccc(Cl)cc1NS(=O)(=O)c1c(C)nc2sccn2c1=O`: the cell number change is 2.4%. In addition, the AC50 under setting [2] is 29.1 µM [rising, single point].

As for `CNc1nc(N/N=C/c2cc3c(cc2[N+](=O)[O-])OCO3)nc(Nc2ccccc2)n1`, the cell number change was -62.1%. The AC50 under setting [1] was 20.6 µM [falling, single point]. Also, under setting [2], the concentration at half-maximal activity (AC50) was 18.4 µM [falling, single point]. Take `COc1cccc(C(=O)N2CCSC2=S)c1`: the cell number change is -12.7%. The half-maximal activity concentration (AC50) under setting [2] was 0.103 µM [falling, full curve, poor fit].

Regarding `COc1cc(OC)cc(C(=O)N2CCC(N3CCN(c4ccccc4)CC3)CC2)c1`, the cell number change was -6.2%. Moreover, the AC50 under setting [2] is 7.31 µM [rising, partial curve].

As usually defined, the AC50 is the concentration giving half of the maximal activity seen.
